This is an account of results in the supplement of paper PMC8007513.

The subject of the assay is Saccharomyces cerevisiae BY4743. Put plainly: growth (OD600) with compound + IPBC relative to untreated control; higher = less growth inhibition. To be noted: compound concentration: 133 uM; IPBC concentration: 0.5 ug/ml; 20 h. On the procedure:
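NMCCC compounds (133 uM) combined with IPBC (0.5 ug/ml) against Saccharomyces cerevisiae BY4743 in YPD, 96-well plates. Growth was read as OD600 at 20 h and expressed as % of the untreated control. Single pass.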

The list shows a part of the results. Repeats are few or missing, and single values can be far off.

For the molecule `COc1ccc(S(=O)(=O)Nc2ccccc2Cl)cc1NS(=O)(=O)N1CCCCCC1` + CCCCNC(=O)OCC#CI [3-iodo-2-propynyl butylcarbamate (IPBC)], the growth was 101%. The figure for `O=C(COc1ncnc2ccc(Br)cc12)NCC1CCCO1` (configuration not stated) + CCCCNC(=O)OCC#CI [3-iodo-2-propynyl butylcarbamate (IPBC)] is 83.9%. The value for `Cc1ccccc1S(=O)(=O)Nc1ncc(C(F)(F)F)cc1Cl` + CCCCNC(=O)OCC#CI [3-iodo-2-propynyl butylcarbamate (IPBC)] was 106%; that for `O=C(c1cc[nH]n1)N1CCc2sccc2C1` + CCCCNC(=O)OCC#CI [3-iodo-2-propynyl butylcarbamate (IPBC)] was 97.8%. The figure for `CCn1c(CN2CCCCCC2=O)nnc1SCC(=O)NCC(C)C` + CCCCNC(=O)OCC#CI [3-iodo-2-propynyl butylcarbamate (IPBC)] is 111%; for `CCOC1=CC(=CC=C1O)C\2CC(=O)N\C(=C2C#N)SCC(=O)NC3=CC=C(C)C=C3C` (configuration not stated) + CCCCNC(=O)OCC#CI [3-iodo-2-propynyl butylcarbamate (IPBC)] it is 97%; for `NC(=O)c1sc2nc(-c3cccs3)ccc2c1N` + CCCCNC(=O)OCC#CI [3-iodo-2-propynyl butylcarbamate (IPBC)] it is 86.7%. Regarding `O=C(NCc1ccc(F)cc1)c1sccc1S(=O)(=O)NC1CC1` + CCCCNC(=O)OCC#CI [3-iodo-2-propynyl butylcarbamate (IPBC)], the growth stood at 104%.

For `O=C1O\C(=N/N1CCC#N)C2=CC=CS2` + CCCCNC(=O)OCC#CI [3-iodo-2-propynyl butylcarbamate (IPBC)], the growth worked out at 93.6%. On to `CC(C)N(Cc1ccccc1)Cc1nc(O)c2sccc2n1` + CCCCNC(=O)OCC#CI [3-iodo-2-propynyl butylcarbamate (IPBC)], for which the growth was found to be 113%. The figure for `CC(=O)NC1=CC=C(C=C1)C(=O)CO\C2=C\O\C(=C/C2=O)CN3CCSCC3` + CCCCNC(=O)OCC#CI [3-iodo-2-propynyl butylcarbamate (IPBC)] is 94.5%. With `COCCn1c(N2CCN(C)CC2)nc2c1c(=O)n(C)c(=O)n2C` + CCCCNC(=O)OCC#CI [3-iodo-2-propynyl butylcarbamate (IPBC)], the growth was 102%. The value for `CC(C)(C)c1cc(N)n(-c2ccc(C(=O)O)cc2)n1` + CCCCNC(=O)OCC#CI [3-iodo-2-propynyl butylcarbamate (IPBC)] was 99.6%; that for `CCOc1ccc(CNC(=O)C(C)n2nc(C)c3ccccc32)cc1OC` (configuration not stated) + CCCCNC(=O)OCC#CI [3-iodo-2-propynyl butylcarbamate (IPBC)] was 88.9%; that for `O=C(NC1(C(F)(F)F)NC(=O)N(Cc2ccncc2)C1=O)c1ccccc1` (configuration not stated) + CCCCNC(=O)OCC#CI [3-iodo-2-propynyl butylcarbamate (IPBC)] was 102%. As to `COc1cc2c(cc1OC)C1CC(=O)C(CC(C)C)CN1CC2` (configuration not stated) + CCCCNC(=O)OCC#CI [3-iodo-2-propynyl butylcarbamate (IPBC)], the growth turned out to be 98.7%. Turning to `CSc1nsc(NC(=O)CN(C)Cc2ccc(Cl)s2)n1` + CCCCNC(=O)OCC#CI [3-iodo-2-propynyl butylcarbamate (IPBC)], the growth was 106%. The value for `COc1ccc(NC(=O)c2ccnc(N3CCC(C)CC3)c2)cc1` + CCCCNC(=O)OCC#CI [3-iodo-2-propynyl butylcarbamate (IPBC)] was 77.6%. For the molecule `CC(Sc1nnc(NC2CC2)s1)C(=O)N(C)C1(C#N)CCCCC1` (configuration not stated) + CCCCNC(=O)OCC#CI [3-iodo-2-propynyl butylcarbamate (IPBC)], the growth amounted to 113%. With `CCOC(=O)C(CC)N1\C=N/C2=C(C=N[N]2C3=CC=C(Cl)C=C3)C1=O` (configuration not stated) + CCCCNC(=O)OCC#CI [3-iodo-2-propynyl butylcarbamate (IPBC)], the growth was found to be 100%. Turning to `CCOC(=O)C(NC(=O)Cc1ccccc1)(Nc1ccc(S(N)(=O)=O)cc1)C(F)(F)F` (configuration not stated) + CCCCNC(=O)OCC#CI [3-iodo-2-propynyl butylcarbamate (IPBC)], the growth stood at 97.2%. Regarding `CC(=O)c1c(C)[nH]c(C(=O)C(C)N2CCC(NS(C)(=O)=O)CC2)c1C` (configuration not stated) + CCCCNC(=O)OCC#CI [3-iodo-2-propynyl butylcarbamate (IPBC)], the growth was 111%. The value for `COc1cc(Br)c(OC)c(C(=O)NCc2c(C)nn(-c3ccccc3)c2C)c1` + CCCCNC(=O)OCC#CI [3-iodo-2-propynyl butylcarbamate (IPBC)] was 94.9%; that for `Cc1[nH]c(C(=O)NCC(Nc2ccccc2)C(C)C)c(C)c1C(=O)OC(C)C` (configuration not stated) + CCCCNC(=O)OCC#CI [3-iodo-2-propynyl butylcarbamate (IPBC)] was 79%; that for `COC1=CC(=CC(=C1OC)Br)C\2\C(=C(\N)O\C3=C2C(=O)CCC3)C#N` (configuration not stated) + CCCCNC(=O)OCC#CI [3-iodo-2-propynyl butylcarbamate (IPBC)] was 87.3%.

With `CCOC(=O)c1c(C)[nH]c(C)c1C(=O)CN1CCc2cc(OC)c(OC)cc2C1` + CCCCNC(=O)OCC#CI [3-iodo-2-propynyl butylcarbamate (IPBC)], the growth worked out at 103%.

As for `CCC(Sc1nc(O)c2c(n1)CCC2)C(=O)NC1CCCCC1` (configuration not stated) + CCCCNC(=O)OCC#CI [3-iodo-2-propynyl butylcarbamate (IPBC)], the growth is 82.5%. Take `Cc1cc(C)cc(N(CCC#N)C(=O)COC(=O)CNC(=O)c2ccc(Br)o2)c1` + CCCCNC(=O)OCC#CI [3-iodo-2-propynyl butylcarbamate (IPBC)]: the growth amounted to 103%. With `CN1\C(=C/C(=N\[S]1(=O)=O)C2=CC=C(F)C=C2)C(=O)NC3=CC=C(C=C3)C(C)=O` + CCCCNC(=O)OCC#CI [3-iodo-2-propynyl butylcarbamate (IPBC)], the growth came out at 102%.

For `COC(=O)c1c(C)[nH]c(C(=O)Cn2nnc(-c3ccc(C(C)C)cc3)n2)c1C` + CCCCNC(=O)OCC#CI [3-iodo-2-propynyl butylcarbamate (IPBC)], the growth was found to be 114%. The figure for `COCc1c(C(=O)Nc2nc[nH]n2)sc2cccc(F)c12` + CCCCNC(=O)OCC#CI [3-iodo-2-propynyl butylcarbamate (IPBC)] is 99.3%; for `O=C(CNC(=O)c1sc2ccccc2c1Cl)OC1CCOC1=O` (configuration not stated) + CCCCNC(=O)OCC#CI [3-iodo-2-propynyl butylcarbamate (IPBC)] it is 96.8%; for `Cc1noc(C(=O)N2CCC3(CC2)OCCO3)c1Cl` + CCCCNC(=O)OCC#CI [3-iodo-2-propynyl butylcarbamate (IPBC)] it is 111%. The value for `NC(=O)c1ccsc1NC(=O)c1ccc(F)cc1F` + CCCCNC(=O)OCC#CI [3-iodo-2-propynyl butylcarbamate (IPBC)] was 69.9%; that for `CCOC(=O)c1cc(CNC2(CN3CCOCC3)CCCC2)on1` + CCCCNC(=O)OCC#CI [3-iodo-2-propynyl butylcarbamate (IPBC)] was 111%; that for `N#Cc1ccc(CCC(=O)OCc2nnnn2-c2ccccc2)cc1` + CCCCNC(=O)OCC#CI [3-iodo-2-propynyl butylcarbamate (IPBC)] was 101%.

In the case of `CCOC(=O)c1cc2c(OC)ccc(OC)c2n1CC(=O)c1ccccc1` + CCCCNC(=O)OCC#CI [3-iodo-2-propynyl butylcarbamate (IPBC)], the growth is 70%. The figure for `Nc1cn(-c2ccc(C(F)(F)F)cn2)nc1Cl` + CCCCNC(=O)OCC#CI [3-iodo-2-propynyl butylcarbamate (IPBC)] is 104%. The figure for `O=C(CCC(=O)N1CCOc2ccc(Cl)cc21)NCC1CCCO1` (configuration not stated) + CCCCNC(=O)OCC#CI [3-iodo-2-propynyl butylcarbamate (IPBC)] is 103%; for `CCOc1ccc(C(=O)NC(c2ccc(C)cc2)c2cccnc2)cc1` (configuration not stated) + CCCCNC(=O)OCC#CI [3-iodo-2-propynyl butylcarbamate (IPBC)] it is 97.3%; for `COC(=O)c1ccc(N2CCCC2)c(NC(=O)N(C)Cc2ccc(OC)cc2OC)c1` + CCCCNC(=O)OCC#CI [3-iodo-2-propynyl butylcarbamate (IPBC)] it is 100%. The figure for `CCn1c(SCC(=O)N(C)CCOc2ccc(Br)cc2)nnc1C1CC1` + CCCCNC(=O)OCC#CI [3-iodo-2-propynyl butylcarbamate (IPBC)] is 96%; for `COc1ccc(NC(C)=O)cc1NC(=O)CN(C)Cc1ccc(C(C)(C)C)cc1` + CCCCNC(=O)OCC#CI [3-iodo-2-propynyl butylcarbamate (IPBC)] it is 102%. For `Cc1ccc(C(NS(=O)(=O)c2ccc(S(C)(=O)=O)cc2)c2cccs2)cc1` (configuration not stated) + CCCCNC(=O)OCC#CI [3-iodo-2-propynyl butylcarbamate (IPBC)], the growth came out at 70.8%. In the case of `N#Cc1ccc(CSc2ccc(S(=O)(=O)N3CCCC3)cn2)cc1` + CCCCNC(=O)OCC#CI [3-iodo-2-propynyl butylcarbamate (IPBC)], the growth came out at 85.3%. The value for `CCC(C)NC(=O)c1cccc(-n2cnc3cccnc32)c1` (configuration not stated) + CCCCNC(=O)OCC#CI [3-iodo-2-propynyl butylcarbamate (IPBC)] was 101%; that for `COc1ccc(Cn2ccnc2SCC(=O)NC2CCCCC2)cc1` + CCCCNC(=O)OCC#CI [3-iodo-2-propynyl butylcarbamate (IPBC)] was 97.1%.
